# In paper PMC9114808:
# The chains behind the UniProt entries cited, without tags or fusion partners.
# UniProt P63101: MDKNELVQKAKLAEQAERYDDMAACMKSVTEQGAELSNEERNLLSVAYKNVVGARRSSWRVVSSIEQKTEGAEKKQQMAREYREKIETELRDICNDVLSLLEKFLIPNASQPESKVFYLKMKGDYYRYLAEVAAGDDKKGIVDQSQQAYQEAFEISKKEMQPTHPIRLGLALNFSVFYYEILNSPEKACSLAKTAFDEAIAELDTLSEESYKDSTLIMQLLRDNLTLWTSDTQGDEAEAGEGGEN
# UniProt P18760: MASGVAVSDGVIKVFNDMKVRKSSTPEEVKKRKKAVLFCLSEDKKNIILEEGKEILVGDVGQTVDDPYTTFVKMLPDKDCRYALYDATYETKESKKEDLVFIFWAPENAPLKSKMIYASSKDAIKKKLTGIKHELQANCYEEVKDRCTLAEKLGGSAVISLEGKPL
# UniProt Q04447: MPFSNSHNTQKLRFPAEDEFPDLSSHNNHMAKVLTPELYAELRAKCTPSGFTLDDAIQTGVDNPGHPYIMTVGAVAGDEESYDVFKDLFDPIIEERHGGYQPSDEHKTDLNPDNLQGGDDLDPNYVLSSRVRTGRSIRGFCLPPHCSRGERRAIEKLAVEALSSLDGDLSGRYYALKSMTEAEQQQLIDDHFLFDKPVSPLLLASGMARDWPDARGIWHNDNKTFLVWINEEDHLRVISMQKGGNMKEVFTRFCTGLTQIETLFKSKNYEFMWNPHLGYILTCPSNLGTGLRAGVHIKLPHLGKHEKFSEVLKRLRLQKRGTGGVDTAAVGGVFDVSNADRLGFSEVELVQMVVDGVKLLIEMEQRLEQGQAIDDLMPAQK
# UniProt P51880: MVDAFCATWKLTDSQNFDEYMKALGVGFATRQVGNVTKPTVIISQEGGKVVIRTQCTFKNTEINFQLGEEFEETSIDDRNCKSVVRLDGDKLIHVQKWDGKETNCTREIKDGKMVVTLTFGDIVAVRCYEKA
# UniProt P15105: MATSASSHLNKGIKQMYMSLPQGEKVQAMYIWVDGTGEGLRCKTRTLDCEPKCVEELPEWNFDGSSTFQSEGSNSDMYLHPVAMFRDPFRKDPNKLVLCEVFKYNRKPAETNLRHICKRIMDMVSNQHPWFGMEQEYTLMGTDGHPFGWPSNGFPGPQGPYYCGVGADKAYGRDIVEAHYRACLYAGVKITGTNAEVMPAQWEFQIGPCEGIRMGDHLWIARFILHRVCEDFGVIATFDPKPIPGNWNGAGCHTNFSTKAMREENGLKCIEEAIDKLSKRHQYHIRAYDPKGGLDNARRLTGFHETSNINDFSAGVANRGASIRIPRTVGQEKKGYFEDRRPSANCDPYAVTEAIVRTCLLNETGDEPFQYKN
# UniProt P62774: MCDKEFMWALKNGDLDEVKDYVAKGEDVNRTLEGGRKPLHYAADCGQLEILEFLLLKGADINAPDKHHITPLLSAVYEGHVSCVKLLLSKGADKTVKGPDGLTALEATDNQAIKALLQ
# UniProt P09405: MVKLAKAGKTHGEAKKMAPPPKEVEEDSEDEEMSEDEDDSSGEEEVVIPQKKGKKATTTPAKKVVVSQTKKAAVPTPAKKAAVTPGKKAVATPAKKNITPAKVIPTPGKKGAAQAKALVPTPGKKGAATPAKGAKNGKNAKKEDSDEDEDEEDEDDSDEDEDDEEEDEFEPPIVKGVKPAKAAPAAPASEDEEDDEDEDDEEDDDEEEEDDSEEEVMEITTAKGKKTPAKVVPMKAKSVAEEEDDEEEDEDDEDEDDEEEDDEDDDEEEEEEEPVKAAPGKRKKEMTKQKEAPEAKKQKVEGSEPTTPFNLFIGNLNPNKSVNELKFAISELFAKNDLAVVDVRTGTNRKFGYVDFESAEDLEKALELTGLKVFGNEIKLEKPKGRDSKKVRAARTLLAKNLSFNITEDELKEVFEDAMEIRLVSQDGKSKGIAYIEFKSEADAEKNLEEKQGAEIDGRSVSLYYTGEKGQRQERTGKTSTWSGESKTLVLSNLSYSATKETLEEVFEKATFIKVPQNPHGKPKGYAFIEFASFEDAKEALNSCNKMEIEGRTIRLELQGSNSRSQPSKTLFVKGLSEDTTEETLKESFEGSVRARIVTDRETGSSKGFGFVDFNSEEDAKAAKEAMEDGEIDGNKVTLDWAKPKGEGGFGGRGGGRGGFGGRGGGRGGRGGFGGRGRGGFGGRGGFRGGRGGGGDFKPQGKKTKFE
# UniProt Q9CZ30: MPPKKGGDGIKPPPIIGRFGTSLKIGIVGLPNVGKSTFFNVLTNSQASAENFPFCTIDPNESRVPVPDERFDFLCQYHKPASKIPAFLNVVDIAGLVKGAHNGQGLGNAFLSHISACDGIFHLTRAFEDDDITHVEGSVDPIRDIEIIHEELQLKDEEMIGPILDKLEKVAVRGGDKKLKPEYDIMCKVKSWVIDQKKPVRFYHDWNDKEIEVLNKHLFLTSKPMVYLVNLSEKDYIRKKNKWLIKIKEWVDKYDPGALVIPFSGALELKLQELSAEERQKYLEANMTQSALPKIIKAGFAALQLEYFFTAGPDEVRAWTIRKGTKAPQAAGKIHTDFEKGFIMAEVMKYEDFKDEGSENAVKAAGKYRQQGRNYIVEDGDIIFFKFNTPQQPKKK
# UniProt P17742: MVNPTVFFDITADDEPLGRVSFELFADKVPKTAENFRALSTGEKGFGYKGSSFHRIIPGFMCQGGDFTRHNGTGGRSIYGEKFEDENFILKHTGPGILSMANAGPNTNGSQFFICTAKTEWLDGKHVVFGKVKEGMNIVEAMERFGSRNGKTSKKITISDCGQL
# UniProt Q9JJV2: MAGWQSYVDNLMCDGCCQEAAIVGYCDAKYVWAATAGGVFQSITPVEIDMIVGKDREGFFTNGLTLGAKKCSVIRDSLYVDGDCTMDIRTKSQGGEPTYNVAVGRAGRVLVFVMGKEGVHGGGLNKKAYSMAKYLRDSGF
# UniProt Q9EQU5: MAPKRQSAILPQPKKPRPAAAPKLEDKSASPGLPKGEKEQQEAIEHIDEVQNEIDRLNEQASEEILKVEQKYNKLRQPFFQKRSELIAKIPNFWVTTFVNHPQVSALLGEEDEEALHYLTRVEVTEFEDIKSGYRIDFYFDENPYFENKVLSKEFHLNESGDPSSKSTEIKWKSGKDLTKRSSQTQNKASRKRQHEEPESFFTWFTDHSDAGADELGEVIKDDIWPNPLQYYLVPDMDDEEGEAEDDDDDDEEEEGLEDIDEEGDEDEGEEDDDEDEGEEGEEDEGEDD
# UniProt P63280: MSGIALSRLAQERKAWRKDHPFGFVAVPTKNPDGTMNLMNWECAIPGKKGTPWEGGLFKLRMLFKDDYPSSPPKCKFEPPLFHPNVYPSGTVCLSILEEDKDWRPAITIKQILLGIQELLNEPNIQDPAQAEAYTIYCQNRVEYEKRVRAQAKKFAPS
# UniProt Q62093: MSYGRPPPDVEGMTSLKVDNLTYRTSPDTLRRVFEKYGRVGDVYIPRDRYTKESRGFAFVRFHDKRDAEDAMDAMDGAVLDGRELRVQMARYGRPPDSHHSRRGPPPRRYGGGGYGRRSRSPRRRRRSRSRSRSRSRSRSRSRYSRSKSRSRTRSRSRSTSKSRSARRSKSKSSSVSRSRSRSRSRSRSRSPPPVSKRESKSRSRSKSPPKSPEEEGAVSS
# UniProt P62320: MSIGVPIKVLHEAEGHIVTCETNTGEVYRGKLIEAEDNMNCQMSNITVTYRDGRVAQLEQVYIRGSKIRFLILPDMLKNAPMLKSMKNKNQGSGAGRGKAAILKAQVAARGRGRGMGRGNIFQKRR
# No constants are given. Whether binding was seen depends on the method and setting. In cells and extracts the contact can be indirect. A yes stands for co-enrichment or nearness to the bait. Other partners may have been found. Tags and fused reporters may be left off the sequences shown.
# T1: Sept7 C-terminal tail peptide, residues 416-438, phosphorylated at T426 (UniProt Q16181)
# T1 sequence (peptide, phosphothreonine at T426): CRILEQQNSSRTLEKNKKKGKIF
# B1: NEDD8-conjugating enzyme Ubc12 (enzyme, UniProt P61082 1-183)
# chain: MIKLFSLKQQKKEEESAGGTKGSSKKASAAQLRIQKDINELNLPKTCDISFSDPDDLLNFKLVICPDEGFYKSGKFVFSFKVGQGYPHDPPKVKCETMVYHPNIDLEGNVCLNILREDWKPVLTINSIIYGLQYLFLEPNPEDPLNKEAAEVLQNNRRLFEQNVQRSMRGGYIGSTYFERCLK
# B2: Destrin (protein, UniProt Q9R0P5 1-165)
# chain: MASGVQVADEVCRIFYDMKVRKCSTPEEIKKRKKAVIFCLSADKKCIVVEEGKEILVGDVGATITDPFKHFVGMLPEKDCRYALYDASFETKESRKEELMFFLWAPEQAPLKSKMIYASSKDAIKKKFPGIKHEYQANGPEDLNRTCIAEKLGGSLIVAFEGSPV
# B3: Aconitate hydratase, mitochondrial (enzyme, UniProt Q99KI0 28-780)
# chain: QRAKVAMSHFEPSEYIRYDLLEKNINIVRKRLNRPLTLSEKIVYGHLDDPANQEIERGKTYLRLRPDRVAMQDATAQMAMLQFISSGLPKVAVPSTIHCDHLIEAQVGGEKDLRRAKDINQEVYNFLATAGAKYGVGFWRPGSGIIHQIILENYAYPGVLLIGTDSHTPNGGGLGGICIGVGGADAVDVMAGIPWELKCPKVIGVKLTGSLSGWTSPKDVILKVAGILTVKGGTGAIVEYHGPGVDSISCTGMATICNMGAEIGATTSVFPYNHRMKKYLSKTGRTDIANLAEEFKDHLVPDPGCQYDQVIEINLNELKPHINGPFTPDLAHPVADVGTVAEKEGWPLDIRVGLIGSCTNSSYEDMGRSAAVAKQALAHGLKCKSQFTITPGSEQIRATIERDGYAQILRDVGGIVLANACGPCIGQWDRKDIKKGEKNTIVTSYNRNFTGRNDANPETHAFVTSPEIVTALAIAGTLKFNPETDFLTGKDGKKFKLEAPDADELPRSDFDPGQDTYQHPPKDSSGQRVDVSPTSQRLQLLEPFDKWDGKDLEDLQILIKVKGKCTTDHISAAGPWLKFRGHLDNISNNLLIGAINIENGKANSVRNAVTQEFGPVPDTARYYKKHGIRWVVIGDENYGEGSSREHAALEPRHLGGRAIITKSFARIHETNLKKQGLLPLTFADPSDYNKIHPVDKLTIQGLKDFAPGKPLKCVIKHPNGTQETILLNHTFNETQIEWFRAGSALNRMKELQQ
# B4: Histidine triad nucleotide-binding protein 1 (protein, UniProt P70349 1-126)
# chain: MADEIAKAQVAQPGGDTIFGKIIRKEIPAKIIFEDDRCLAFHDISPQAPTHFLVIPKKHISQISVADDDDESLLGHLMIVGKKCAADLGLKRGYRMVVNEGADGGQSVYHIHLHVLGGRQMNWPPG
# B5: Translationally-controlled tumor protein (protein, UniProt P63028 1-172)
# chain: MIIYRDLISHDELFSDIYKIREIADGLCLEVEGKMVSRTEGAIDDSLIGGNASAEGPEGEGTESTVVTGVDIVMNHHLQETSFTKEAYKKYIKDYMKSLKGKLEEQKPERVKPFMTGAAEQIKHILANFNNYQFFIGENMNPDGMVALLDYREDGVTPFMIFFKDGLEMEKC
# B6: ADP/ATP translocase 1 (protein, UniProt P48962 1-298)
# chain: MGDQALSFLKDFLAGGIAAAVSKTAVAPIERVKLLLQVQHASKQISAEKQYKGIIDCVVRIPKEQGFLSFWRGNLANVIRYFPTQALNFAFKDKYKQIFLGGVDRHKQFWRYFAGNLASGGAAGATSLCFVYPLDFARTRLAADVGKGSSQREFNGLGDCLTKIFKSDGLKGLYQGFSVSVQGIIIYRAAYFGVYDTAKGMLPDPKNVHIIVSWMIAQSVTAVAGLVSYPFDTVRRRMMMQSGRKGADIMYTGTLDCWRKIAKDEGANAFFKGAWSNVLRGMGGAFVLVLYDEIKKYV
# B7: 14 kDa phosphohistidine phosphatase (enzyme, UniProt Q9DAK9 1-124)
# chain: MAADLGQIPDVDIDSDGVFKYVLIRVHLAEPSGDPAKECKEIVRGYKWAEYHADIYDKVSGELQRNGYDCECLGGGRISHQSQDRKIHVYGYSMGYGRAQHSVSTEKIKAKYPDYEVTWADDGY
# B8: 14-3-3 protein gamma (protein, UniProt P61982 1-247)
# chain: MVDREQLVQKARLAEQAERYDDMAAAMKNVTELNEPLSNEERNLLSVAYKNVVGARRSSWRVISSIEQKTSADGNEKKIEMVRAYREKIEKELEAVCQDVLSLLDNYLIKNCSETQYESKVFYLKMKGDYYRYLAEVATGEKRATVVESSEKAYSEAHEISKEHMQPTHPIRLGLALNYSVFYYEIQNAPEQACHLAKTAFDDAIAELDTLNEDSYKDSTLIMQLLRDNLTLWTSDQQDDDGGEGNN
# Molecular target: T1, Sept7 C-terminal tail peptide, residues 416-438, phosphorylated at T426
# Test: affinity purification with mass spectrometry; Sept7 416-438 peptides (pT426 or unphosphorylated) coupled by an N-terminal cysteine to SulfoLink beads, incubated with 100 ul of 0.5 mg/ml P15 mouse brain lysate; washes in 20 mM Tris pH 7.5, 100 mM NaCl, 10 mM MgCl2, 1% Triton X-100, 0.1% deoxycholic acid; label-free quantification, five replicates, phosphorylated against unphosphorylated peptide; only the target purified
row,binding,Molecule
1,binds,14-3-3 protein zeta/delta (from UniProt P63101 1-245)
2,binds,Cofilin-1 (from UniProt P18760 1-166)
3,binds,Creatine kinase B-type (from UniProt Q04447 1-381) (enzyme)
4,binds,Eukaryotic translation initiation factor 5A-1; 5A-2 (mouse (endogenous in P15 mouse brain))
5,binds,"Fatty acid-binding protein, brain (from UniProt P51880 1-132)"
6,binds,Glutamine synthetase (from UniProt P15105 1-373) (enzyme)
7,binds,Heterogeneous nuclear ribonucleoprotein A3 (mouse (endogenous in P15 mouse brain))
8,binds,Myotrophin (from UniProt P62774 1-118)
9,binds,Nucleolin (from UniProt P09405 1-707)
10,binds,Obg-like ATPase 1 (from UniProt Q9CZ30 1-396) (enzyme)
11,binds,Peptidyl-prolyl cis-trans isomerase A (from UniProt P17742 1-164) (enzyme)
12,binds,Profilin-2 (from UniProt Q9JJV2 1-140)
13,binds,Protein SET (from UniProt Q9EQU5 1-289)
14,binds,SUMO-conjugating enzyme UBC9 (from UniProt P63280 1-158)
15,binds,Serine/arginine-rich splicing factor 2 (from UniProt Q62093 1-221)
16,binds,Small nuclear ribonucleoprotein Sm D3 (from UniProt P62320 1-126)
17,binds,B1
18,binds,B2
19,binds,B3
20,binds,B4
21,binds,B5
22,binds,B6
23,binds,B7
24,binds,B8
